PubChem BioAssay AID1224830, NIAID – 2016

- Screen: 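Host factors that control LPS-induced TNF expression in human macrophages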 (primary screen)
- Cell system: human THP-1 monocytic leukaemia cells, TNF dual-luciferase reporter clone, PMA-differentiated to macrophage-like cells
- Reagent: siRNA pool against human genes, 50 nM
- Timing: LPS for 4 h, given about 3 days after siRNA transfection
- Treatment: bacterial LPS (TLR4 ligand), 10 ng/ml
- Measurement: 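Ratio of firefly to renilla light, scaled to the plate median and expressed as a robust z-score per replicate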
- Scale: TNF reporter robust z-score: higher = stronger TNF reporter response to LPS
- Rule for the call: 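a well is active when its z-score exceeds 2.8 or falls below -1.5; control wells carry no call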
The whole screen tested about 18,000 reagents; this is a random part of them. About 2,900 of all reagents (16%) were called active. 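Calls are made per well; low scores hint the gene aids the LPS response, high scores that it dampens it.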 Unmarked entries are inactive. Repeated entries: four replicate wells of each siRNA pool. No sequences are given here.

target gene | TNF reporter robust z-score
XRCC6 | -1.77 (active)
XRCC6 | -1.61 (active)
XRCC6 | -0.71
XRCC6 | -0.77
CDKL1 | -1.23
CDKL1 | -1.56 (active)
CDKL1 | -1.11
CDKL1 | -0.88
TIMM23B | 3.29 (active)
TIMM23B | 0.1
TIMM23B | -1.16
TIMM23B | 0.11
ASPNAT | 0.15
ASPNAT | 0.31
ASPNAT | 0.01
ASPNAT | 0.14
C1QTNF7 | 0.34
C1QTNF7 | -0.79
C1QTNF7 | 0.51
C1QTNF7 | -0.5
FANCD2 | 0.7
FANCD2 | -0.79
FANCD2 | -0.44
FANCD2 | 0.8
POPDC1 | -0.03
POPDC1 | 0.41
POPDC1 | -0.96
POPDC1 | 0.55
G3BP1 | 0
G3BP1 | -0.28
G3BP1 | -0.38
G3BP1 | -0.57
RARRES1 | 1.14
RARRES1 | 0.79
RARRES1 | 1.74
RARRES1 | 0.73
SCAF11 | 0.31
SCAF11 | 0.9
SCAF11 | -1.08
SCAF11 | 0.4
SIM1 | -1.66 (active)
SIM1 | -1.01
SIM1 | -1.31
SIM1 | -0.81
SARAF | 0.34
SARAF | 1.51
SARAF | 2.5
SARAF | -1.06
NCKAP1 | 2.53
NCKAP1 | -0.07
NCKAP1 | -0.53
NCKAP1 | 0.78
SLC39A5 | 0
SLC39A5 | 0.46
SLC39A5 | -0.97
SLC39A5 | -0.22
ADCY9 | 0.15
ADCY9 | 9.74 (active)
ADCY9 | 2.22
ADCY9 | 0.62
FAM174B | -0.02
FAM174B | 0.2
FAM174B | 0.34
FAM174B | -0.22
TCF21 | -0.45
TCF21 | -0.19
TCF21 | 0.09
TCF21 | 0.04
ZNF26 | 0.1
ZNF26 | 1.82
ZNF26 | -0.99
ZNF26 | -0.38
MCTP2 | -0.64
MCTP2 | 1.03
MCTP2 | -0.1
MCTP2 | 1.48
RBP1 | -0.9
RBP1 | -0.54
RBP1 | -1.28
ANP32CP | -0.73
ANP32CP | -0.12
ANP32CP | 0.32
ANP32CP | 0.69
CEACAM4 | -0.25
CEACAM4 | -1.29
CEACAM4 | -0.27
CEACAM4 | -0.83
EHD3 | 0.33
EHD3 | 1.85
EHD3 | 0.15
EHD3 | 0.41
DSC3 | -1.36
DSC3 | -0.97
DSC3 | -1.16
DSC3 | -0.86
TSEN2 | 1.61
TSEN2 | 2.05
TSEN2 | 1.45
TSEN2 | 1.95
IGSF22 | -0.96
IGSF22 | -1.51 (active)
IGSF22 | -1.06
IGSF22 | -0.46
ELOB | 2.64
ELOB | 1.24
ELOB | 3.12 (active)
ELOB | 2.77
HOPX | -0.34
HOPX | -0.93
HOPX | -0.12
C2CD4A | -0.81
C2CD4A | 0.41
C2CD4A | 0.29
C2CD4A | 1.24
KCNJ12 | -0.01
KCNJ12 | -0.55
KCNJ12 | 0.48
KCNJ12 | -0.17
SIX2 | -1.1
SIX2 | -1.2
SIX2 | -1.24
SIX2 | -0.85
FAM53C | -0.58
FAM53C | -1.11
FAM53C | -0.98
FAM53C | -1.4
SIRPB1 | -0.5
SIRPB1 | -1.19
SIRPB1 | -1.21
SIRPB1 | -0.87
LMNA | -0.8
LMNA | -0.17
LMNA | 0.16
LMNA | 0.31
ARL9 | 0.11
ARL9 | 0.5
ARL9 | 0.41
ARL9 | -0.29
TMOD4 | 4.29 (active)
TMOD4 | 2.01
TMOD4 | 1.67
TMOD4 | 2.71

Entries listed above with an active call (9):
target gene | TNF reporter robust z-score
XRCC6 | -1.77 (active)
XRCC6 | -1.61 (active)
CDKL1 | -1.56 (active)
TIMM23B | 3.29 (active)
SIM1 | -1.66 (active)
ADCY9 | 9.74 (active)
IGSF22 | -1.51 (active)
ELOB | 3.12 (active)
TMOD4 | 4.29 (active)
